The other results are listed elsewhere or left out.

What all share (assay): protein microarray (ProtoArray v5.0), streptavidin-Alexa Fluor 647
What all share (conditions): 3'-biotin; 20 mM Tris (pH 7.5), 5 mM MgCl2, 100 mM KCl, 0.1% Tween-20, A/T-rich and random oligonucleotide blockers; temperature not stated; high values mean tight binding

Experiment [1] has as its system LMX1A (human).
Experiment [2] has as its system LOC113386 (human).
For experiment [3], the system named is LOC124220 (human).
Experiment [4] deals with LOC124446 (human).
Experiment [5] has as its system LOC144631 (human).
Experiment [6] concerns LOC149267 (human).
The subject of experiment [7] is LOC151534 (human).
Experiment [8] deals with LOC152024 (human).
In experiment [9] the test system is LOC153684 protein (human).
The subject of experiment [10] is LOC170425 (human).

For “GGGAGGCTGAGGCAGG [G4-1 biotinylated (PQS2)]”, the binding signal in experiment [1] was -0.349 z-score; in experiment [2], -0.343 z-score; in [3] it was -0.306 z-score; in [4], -0.327 z-score; in experiment [5] it was -0.341 z-score; in experiment [6], -0.322 z-score. For the same sequence, the binding signal in [7] is -0.252 z-score; in experiment [8], -0.281 z-score; in experiment [9] it was 3.85 z-score; in experiment [10], -0.327 z-score.

(Values after article PMC5996148.)
